The target of the experiment is T1, GST-eIF4A (GST-His6-eIF4A) (S. cerevisiae) (UniProt P10081).
T1 sequence: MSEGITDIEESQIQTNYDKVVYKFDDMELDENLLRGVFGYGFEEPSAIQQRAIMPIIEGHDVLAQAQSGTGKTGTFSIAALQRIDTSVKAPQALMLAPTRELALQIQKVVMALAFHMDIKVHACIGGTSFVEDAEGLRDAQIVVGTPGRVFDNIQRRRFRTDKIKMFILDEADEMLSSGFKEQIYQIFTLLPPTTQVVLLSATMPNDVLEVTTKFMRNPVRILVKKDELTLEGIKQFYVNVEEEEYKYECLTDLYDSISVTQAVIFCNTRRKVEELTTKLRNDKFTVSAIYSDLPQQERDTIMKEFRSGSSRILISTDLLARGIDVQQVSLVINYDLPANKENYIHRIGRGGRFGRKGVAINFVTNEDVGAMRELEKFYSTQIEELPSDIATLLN
As to the kind of experiment: pull-down; 1500 nM GST-eIF4A on glutathione sepharose 4B; 1500 nM Ded1p^117-604 or Ded1p^1-535; 20 µg/mL RNases A,B; 5 µg/µL BSA; 8°C overnight; washed with RIPA buffer; Western blot with α-Ded1p; both purified.

By UniProt entry, the sequences of proteins in these tests, tags left out. Where a name states a change or a piece, a line headed by the entry shows the natural chain unless it says otherwise. Residues count along the entry.
UniProt P06634, residues 117-604: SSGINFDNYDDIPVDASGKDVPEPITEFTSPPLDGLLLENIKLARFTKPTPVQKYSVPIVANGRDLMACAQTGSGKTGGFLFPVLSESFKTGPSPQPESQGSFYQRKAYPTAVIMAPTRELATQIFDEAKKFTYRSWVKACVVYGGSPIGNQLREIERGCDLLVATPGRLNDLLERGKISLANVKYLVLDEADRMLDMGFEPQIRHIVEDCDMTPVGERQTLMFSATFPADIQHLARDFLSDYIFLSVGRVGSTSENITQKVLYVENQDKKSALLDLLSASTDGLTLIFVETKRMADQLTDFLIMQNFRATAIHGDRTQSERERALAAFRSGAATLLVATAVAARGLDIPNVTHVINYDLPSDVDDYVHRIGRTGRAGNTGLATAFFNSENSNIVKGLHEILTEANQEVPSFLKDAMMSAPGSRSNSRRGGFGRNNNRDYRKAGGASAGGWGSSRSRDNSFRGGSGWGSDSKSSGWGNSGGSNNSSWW

These are yes or no findings as the source states them, for the method shown. Tags and fused reporters may be left off the sequences shown.

Take “Ded1p^117-604 (N-terminus deleted) (from UniProt P06634 117-604) (domain or fragment)”: the binding entry is “no binding (tested: 1500 nM)”.

The values are drawn from PMC4990422, “Coupling between the DEAD-box RNA helicases Ded1p and eIF4A” (eLife, 2016).
